Here are results for one molecule from PMC8594130.

Protein sequences, listed by entry. Tags and fused reporters are not part of them.
UniProt Q61188: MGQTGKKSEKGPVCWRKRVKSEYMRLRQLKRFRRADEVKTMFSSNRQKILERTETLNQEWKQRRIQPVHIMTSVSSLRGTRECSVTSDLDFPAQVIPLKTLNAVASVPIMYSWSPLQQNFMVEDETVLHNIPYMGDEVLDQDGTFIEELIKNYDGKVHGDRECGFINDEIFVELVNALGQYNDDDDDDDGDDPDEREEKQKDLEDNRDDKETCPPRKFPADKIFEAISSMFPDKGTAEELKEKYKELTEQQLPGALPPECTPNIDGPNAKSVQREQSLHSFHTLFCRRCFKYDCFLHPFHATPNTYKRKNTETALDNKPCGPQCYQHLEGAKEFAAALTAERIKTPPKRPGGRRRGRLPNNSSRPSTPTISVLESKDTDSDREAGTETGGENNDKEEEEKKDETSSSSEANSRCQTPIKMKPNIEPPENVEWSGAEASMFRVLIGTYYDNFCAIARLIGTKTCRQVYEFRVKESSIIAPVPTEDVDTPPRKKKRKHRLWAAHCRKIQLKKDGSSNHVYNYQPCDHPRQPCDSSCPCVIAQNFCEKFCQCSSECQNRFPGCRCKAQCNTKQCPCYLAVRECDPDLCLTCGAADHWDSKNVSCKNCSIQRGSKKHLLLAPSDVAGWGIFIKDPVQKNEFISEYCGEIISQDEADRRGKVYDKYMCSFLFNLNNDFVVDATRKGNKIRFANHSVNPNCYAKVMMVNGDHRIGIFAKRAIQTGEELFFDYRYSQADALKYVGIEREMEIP

This assay addresses enhancer of zeste homolog 2 (EZH2) (mouse (endogenous in primary vascular SMCs)) (UniProt Q61188). Nature of the assay: co-IP; SMC lysate incubated with EZH2 antibody (ab191080) and protein A/G beads at 4 °C overnight; precipitate analysed by Western blot for RIG-I.

Results are given in words; binding and its absence hold for the method and conditions named. In cells and extracts the contact can be indirect. Some entries that bind do so weakly or less than the wild type.

B1: retinoic acid-inducible gene-I (RIG-I) (protein, UniProt Q6Q899 1-926)
chain: MTAEQRQNLQAFRDYIKKILDPTYILSYMSSWLEDEEVQYIQAEKNNKGPMEAASLFLQYLLKLQSEGWFQAFLDALYHAGYCGLCEAIESWDFQKIEKLEEHRLLLRRLEPEFKATVDPNDILSELSECLINQECEEIRQIRDTKGRMAGAEKMAECLIRSDKENWPKVLQLALEKDNSKFSELWIVDKGFKRAESKADEDDGAEASSIQIFIQEEPECQNLSQNPGPPSEASSNNLHSPLKPRNYQLELALPAKKGKNTIICAPTGCGKTFVSLLICEHHLKKFPCGQKGKVVFFANQIPVYEQQATVFSRYFERLGYNIASISGATSDSVSVQHIIEDNDIIILTPQILVNNLNNGAIPSLSVFTLMIFDECHNTSKNHPYNQIMFRYLDHKLGESRDPLPQVVGLTASVGVGDAKTAEEAMQHICKLCAALDASVIATVRDNVAELEQVVYKPQKISRKVASRTSNTFKCIISQLMKETEKLAKDVSEELGKLFQIQNREFGTQKYEQWIVGVHKACSVFQMADKEEESRVCKALFLYTSHLRKYNDALIISEDAQMTDALNYLKAFFHDVREAAFDETERELTRRFEEKLEELEKVSRDPSNENPKLRDLYLVLQEEYHLKPETKTILFVKTRALVDALKKWIEENPALSFLKPGILTGRGRTNRATGMTLPAQKCVLEAFRASGDNNILIATSVADEGIDIAECNLVILYEYVGNVIKMIQTRGRGRARDSKCFLLTSSADVIEKEKANMIKEKIMNESILRLQTWDEMKFGKTVHRIQVNEKLLRDSQHKPQPVPDKENKKLLCGKCKNFACYTADIRVVETSHYTVLGDAFKERFVCKPHPKPKIYDNFEKKAKIFCAKQNCSHDWGIFVRYKTFEIPVIKIESFVVEDIVSGVQNRHSKWKDFHFERIQFDPAEMSV
Take B1: the binding entry is reported as “binds”.
